From patent US20260183408A1, “POLYPEPTIDE AND USE THEREOF” (SHENZHEN CHENYANG BIOLOGICAL TECHNOLOGY CO., LTD, priority 2022, published 2026)
No constants are given. Whether binding was seen depends on the method and setting. In cells and extracts the contact can be indirect. Some binding calls cover weakened binding; strength is not graded here.

By UniProt entry, the sequences of proteins in these tests, tags left out. Where a name states a change or a piece, a line headed by the entry shows the natural chain unless it says otherwise. Residues count along the entry.
UniProt P34968, residues 33-459: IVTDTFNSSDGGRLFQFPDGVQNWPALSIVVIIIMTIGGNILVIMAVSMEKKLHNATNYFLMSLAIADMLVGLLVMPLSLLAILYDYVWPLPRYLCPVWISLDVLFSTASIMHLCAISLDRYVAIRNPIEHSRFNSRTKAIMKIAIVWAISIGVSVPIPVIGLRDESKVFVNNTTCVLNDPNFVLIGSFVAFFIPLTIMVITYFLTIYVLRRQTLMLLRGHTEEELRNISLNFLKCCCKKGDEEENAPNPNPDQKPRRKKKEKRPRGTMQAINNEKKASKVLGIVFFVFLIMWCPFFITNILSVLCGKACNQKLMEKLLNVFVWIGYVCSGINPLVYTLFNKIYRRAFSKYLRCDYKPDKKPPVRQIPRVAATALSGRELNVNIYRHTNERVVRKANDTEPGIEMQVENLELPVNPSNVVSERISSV
UniProt P14416: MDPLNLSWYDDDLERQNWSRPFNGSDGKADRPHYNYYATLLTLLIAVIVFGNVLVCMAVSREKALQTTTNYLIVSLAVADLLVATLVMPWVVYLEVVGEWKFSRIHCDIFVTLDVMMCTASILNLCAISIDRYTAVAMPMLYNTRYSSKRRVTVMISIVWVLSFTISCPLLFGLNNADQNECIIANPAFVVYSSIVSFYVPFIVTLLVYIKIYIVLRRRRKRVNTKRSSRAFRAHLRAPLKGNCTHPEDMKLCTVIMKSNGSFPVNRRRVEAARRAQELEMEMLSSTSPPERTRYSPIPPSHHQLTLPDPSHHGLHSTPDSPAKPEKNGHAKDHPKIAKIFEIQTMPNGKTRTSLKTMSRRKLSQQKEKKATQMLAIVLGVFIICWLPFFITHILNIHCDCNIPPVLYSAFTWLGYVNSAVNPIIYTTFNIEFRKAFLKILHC

Molecular target: 5-HT2CR, endogenous in mouse hippocampal tissue (mouse) (UniProt P34968)
Assay: GST pulldown from mouse hippocampal tissue extract, Western blot

binding | Substance
binds | GST fusion protein containing the IL3 region of D2R (GST-D2R-IL3) (from UniProt P14416 211-373)
binds | GST fusion protein containing the KVC region of D2R (GST-D2R-KVC) (from UniProt P14416 211-270)
